No constants are given. Whether binding was seen depends on the method and setting. In cells and extracts the contact can be indirect. For some of these results: A result given as binding can be weak or reduced; the word gives no strength. Sequences can lack the tags named with a protein. One block for each molecule: values may come before it.
Legend:
Experiment in all cases: co-IP; 293T cells co-transfected for 48 h with FLAG-GBP5 (WT or mutant) and a MYC-tagged OST subunit; lysates (Pierce IP Lysis Buffer) immunoprecipitated overnight at 4°C with anti-FLAG on Dynabeads Protein G; washes include 500 mM NaCl; anti-MYC blot
[1] = molecular target: T1, FLAG-tagged GBP5 (guanylate-binding protein 5) (UniProt Q96PP8)
T1 sequence: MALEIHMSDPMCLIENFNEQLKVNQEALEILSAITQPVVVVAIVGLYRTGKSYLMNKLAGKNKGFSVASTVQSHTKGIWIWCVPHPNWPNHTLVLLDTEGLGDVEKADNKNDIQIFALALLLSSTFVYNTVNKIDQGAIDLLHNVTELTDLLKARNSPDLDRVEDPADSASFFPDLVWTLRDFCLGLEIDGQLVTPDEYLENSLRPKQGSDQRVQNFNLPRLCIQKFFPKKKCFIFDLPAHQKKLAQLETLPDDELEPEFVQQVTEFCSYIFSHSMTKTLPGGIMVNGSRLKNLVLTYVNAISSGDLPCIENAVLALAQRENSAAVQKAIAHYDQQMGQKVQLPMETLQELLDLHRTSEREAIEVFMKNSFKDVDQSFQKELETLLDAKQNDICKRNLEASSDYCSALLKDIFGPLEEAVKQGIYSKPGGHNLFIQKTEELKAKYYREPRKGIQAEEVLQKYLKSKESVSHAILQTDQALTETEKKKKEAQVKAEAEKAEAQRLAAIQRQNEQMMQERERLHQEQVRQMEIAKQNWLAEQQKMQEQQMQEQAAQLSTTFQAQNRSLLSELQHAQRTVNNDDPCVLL

[2] = molecular target: FLAG-GBP5 mutant M1 (deletion of the large GTPase (LG) domain)
[3] = molecular target: FLAG-GBP5 mutant M4 (deletion of the GTPase effector domain (GED))

Molecule: MYC-tagged RPN2 deleted for its C terminal cytoplasmic tail (domain or fragment)
- binding [1]: no binding

Molecule: MYC-tagged DDOST deleted for its C terminal cytoplasmic tail (domain or fragment)
- binding [1]: no binding

B1: MYC-tagged RPN1 (protein, UniProt P04843 24-607)
chain: ASSEAPPLINEDVKRTVDLSSHLAKVTAEVVLAHLGGGSTSRATSFLLALEPELEARLAHLGVQVKGEDEEENNLEVRETKIKGKSGRFFTVKLPVALDPGAKISVIVETVYTHVLHPYPTQITQSEKQFVVFEGNHYFYSPYPTKTQTMRVKLASRNVESYTKLGNPTRSEDLLDYGPFRDVPAYSQDTFKVHYENNSPFLTITSMTRVIEVSHWGNIAVEENVDLKHTGAVLKGPFSRYDYQRQPDSGISSIRSFKTILPAAAQDVYYRDEIGNVSTSHLLILDDSVEMEIRPRFPLFGGWKTHYIVGYNLPSYEYLYNLGDQYALKMRFVDHVFDEQVIDSLTVKIILPEGAKNIEIDSPYEISRAPDELHYTYLDTFGRPVIVAYKKNLVEQHIQDIVVHYTFNKVLMLQEPLLVVAAFYILFFTVIIYVRLDFSITKDPAAEARMKVACITEQVLTLVNKRIGLYRHFDETVNRYKQSRDISTLNSGKKSLETEHKALTSEIALLQSRLKTEGSDLCDRVSEMQKLDAQVKELVLKSAVEAERLVAGKLKKDTYIENEKLISGKRQELVTKIDHILDAL
- binding [2]: binds
- binding [3]: binds

Continued, values first:

- binding [1]: no binding
Molecule: MYC-tagged RPN1 deleted for its C terminal cytoplasmic tail (domain or fragment)

- binding [2]: binds
- binding [3]: binds
B2: MYC-tagged DDOST (protein, UniProt P39656 43-456)
chain: SGPRTLVLLDNLNVRETHSLFFRSLKDRGFELTFKTADDPSLSLIKYGEFLYDNLIIFSPSVEDFGGNINVETISAFIDGGGSVLVAASSDIGDPLRELGSECGIEFDEEKTAVIDHHNYDISDLGQHTLIVADTENLLKAPTIVGKSSLNPILFRGVGMVADPDNPLVLDILTGSSTSYSFFPDKPITQYPHAVGKNTLLIAGLQARNNARVIFSGSLDFFSDSFFNSAVQKAAPGSQRYSQTGNYELAVALSRWVFKEEGVLRVGPVSHHRVGETAPPNAYTVTDLVEYSIVIQQLSNGKWVPFDGDDIQLEFVRIDPFVRTFLKKKGGKYSVQFKLPDVYGVFQFKVDYNRLGYTHLYSSTQVSVRPLQHTQYERFIPSAYPYYASAFSMMLGLFIFSIVFLHMKEKEKSD
